The list shows a part of the results.
Assays:
Assay in all cases: glycan array binding signal (z-score within array); higher = stronger binding
Conditions in all cases: glycan notation: IUPAC condensed, linker removed
[1] = molecular target: Neu5Ac(a2-3)Gal6S(b1-4)[Fuc(a1-3)]GlcNAc
Summary of the method: (§1)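 The binding signal is a Z-score computed within each array. Data were drawn from 3228 arrays in the Consortium for Functional Glycomics database, restricted to those with a known protein sequence. Scores were averaged over arrays of the same protein sequence at different concentrations or buffers, and over linkers, and negative values can be taken as non-binding.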

Neu5Ac(a2-3)GalNAc = molecular target: Neu5Ac(a2-3)GalNAc
Summary of the method: as §1

[2] = molecular target: Neu5Ac(a2-3)GalNAc(b1-4)GlcNAc
Summary of the method: as §1

[3] = molecular target: Neu5Ac(a2-3)[GalNAc(b1-4)]Gal(b1-4)Glc
Summary of the method: as §1

[4] = molecular target: Neu5Ac(a2-3)[GalNAc(b1-4)]Gal(b1-4)GlcNAc
Summary of the method: as §1

[5] = molecular target: Neu5Ac(a2-3)[GalNAc(b1-4)]Gal(b1-4)GlcNAc(b1-3)GalNAc
Summary of the method: as §1

[6] = molecular target: Neu5Ac(a2-3)[Neu5Ac(a2-6)]GalNAc
Summary of the method: as §1

Neu5Ac(a2-6)Gal = molecular target: Neu5Ac(a2-6)Gal
Summary of the method: as §1

Neu5Ac(a2-6)Gal(b1-4)Glc = molecular target: Neu5Ac(a2-6)Gal(b1-4)Glc
Summary of the method: as §1

[7] = molecular target: Neu5Ac(a2-6)Gal(b1-4)GlcNAc
Summary of the method: as §1

[8] = molecular target: Neu5Ac(a2-6)Gal(b1-4)GlcNAc(b1-2)Man(a1-3)Man(b1-4)GlcNAc(b1-4)GlcNAc
Summary of the method: as §1

[9] = molecular target: Neu5Ac(a2-6)Gal(b1-4)GlcNAc(b1-2)Man(a1-3)[Gal(b1-4)GlcNAc(b1-2)Man(a1-6)]Man(b1-4)GlcNAc(b1-4)GlcNAc
Summary of the method: as §1

[10] = molecular target: Neu5Ac(a2-6)Gal(b1-4)GlcNAc(b1-2)Man(a1-3)[GlcNAc(b1-2)Man(a1-6)]Man(b1-4)GlcNAc(b1-4)GlcNAc
Summary of the method: as §1

[11] = molecular target: Neu5Ac(a2-6)Gal(b1-4)GlcNAc(b1-2)Man(a1-3)[GlcNAc(b1-2)Man(b1-4)GlcNAc(b1-2)Man(a1-6)]Man(b1-4)GlcNAc(b1-4)GlcNAc
Summary of the method: as §1

[12] = molecular target: Neu5Ac(a2-6)Gal(b1-4)GlcNAc(b1-2)Man(a1-3)[Man(a1-6)]Man(b1-4)GlcNAc(b1-4)GlcNAc
Summary of the method: as §1

[13] = molecular target: Neu5Ac(a2-6)Gal(b1-4)GlcNAc(b1-2)Man(a1-3)[Neu5Ac(a2-6)Gal(b1-4)GlcNAc(b1-2)Man(a1-6)]Man(b1-4)GlcNAc(b1-4)GlcNAc
Summary of the method: as §1

[14] = molecular target: Neu5Ac(a2-6)Gal(b1-4)GlcNAc(b1-2)Man(a1-6)Man(b1-4)GlcNAc(b1-4)GlcNAc
Summary of the method: as §1

[15] = molecular target: Neu5Ac(a2-6)Gal(b1-4)GlcNAc(b1-2)Man(a1-6)[Gal(b1-4)GlcNAc(b1-2)Man(a1-3)]Man(b1-4)GlcNAc(b1-4)GlcNAc
Summary of the method: as §1

[16] = molecular target: Neu5Ac(a2-6)Gal(b1-4)GlcNAc(b1-2)Man(a1-6)[GlcNAc(b1-2)Man(a1-3)]Man(b1-4)GlcNAc(b1-4)GlcNAc
Summary of the method: as §1

[17] = molecular target: Neu5Ac(a2-6)Gal(b1-4)GlcNAc(b1-2)Man(a1-6)[Man(a1-3)]Man(b1-4)GlcNAc(b1-4)GlcNAc
Summary of the method: as §1

[18] = molecular target: Neu5Ac(a2-6)Gal(b1-4)GlcNAc(b1-3)Gal(b1-3)GlcNAc
Summary of the method: as §1

[19] = molecular target: Neu5Ac(a2-6)Gal(b1-4)GlcNAc(b1-3)Gal(b1-4)GlcNAc
Summary of the method: as §1

[20] = molecular target: Neu5Ac(a2-6)Gal(b1-4)GlcNAc(b1-3)Gal(b1-4)GlcNAc(b1-3)Gal(b1-4)GlcNAc
Summary of the method: as §1

[21] = molecular target: Neu5Ac(a2-6)Gal(b1-4)GlcNAc(b1-3)Gal(b1-4)[Fuc(a1-3)]GlcNAc(b1-3)Gal(b1-4)[Fuc(a1-3)]GlcNAc
Summary of the method: as §1

[22] = molecular target: Neu5Ac(a2-6)Gal(b1-4)GlcNAc(b1-3)GalNAc
Summary of the method: as §1

[23] = molecular target: Neu5Ac(a2-6)Gal(b1-4)GlcNAc6S
Summary of the method: as §1

Neu5Ac(a2-6)GalNAc = molecular target: Neu5Ac(a2-6)GalNAc
Summary of the method: as §1

[24] = molecular target: Neu5Ac(a2-6)GalNAc(b1-4)GlcNAc
Summary of the method: as §1

[25] = molecular target: Neu5Ac(a2-6)GlcNAc(b1-4)GlcNAc
Summary of the method: as §1

[26] = molecular target: Neu5Ac(a2-6)GlcNAc(b1-4)GlcNAc(b1-4)GlcNAc
Summary of the method: as §1

Neu5Ac(a2-8)Neu5Ac = molecular target: Neu5Ac(a2-8)Neu5Ac
Summary of the method: as §1

[27] = molecular target: Neu5Ac(a2-8)Neu5Ac(a2-3)Gal(b1-4)Glc
Summary of the method: as §1

[28] = molecular target: Neu5Ac(a2-8)Neu5Ac(a2-3)[GalNAc(b1-4)]Gal(b1-4)Glc
Summary of the method: as §1

[29] = molecular target: Neu5Ac(a2-8)Neu5Ac(a2-8)Neu5Ac
Summary of the method: as §1

[30] = molecular target: Neu5Ac(a2-8)Neu5Ac(a2-8)Neu5Ac(a2-3)Gal(b1-4)Glc
Summary of the method: as §1

[31] = molecular target: Neu5Ac(a2-8)Neu5Ac(a2-8)Neu5Ac(a2-3)[GalNAc(b1-4)]Gal(b1-4)Glc
Summary of the method: as §1

[32] = molecular target: Neu5Ac(a2-8)Neu5Ac(a2-8)Neu5Ac(a2-8)Neu5Ac(a2-3)[GalNAc(b1-4)]Gal(b1-4)Glc
Summary of the method: as §1

[33] = molecular target: Neu5Ac(b2-6)Gal(b1-4)GlcNAc
Summary of the method: as §1

Neu5Ac(b2-6)GalNAc = molecular target: Neu5Ac(b2-6)GalNAc
Summary of the method: as §1

[34] = molecular target: Neu5Ac9Ac(a2-3)Gal(b1-3)GlcNAc
Summary of the method: as §1

[35] = molecular target: Neu5Ac9Ac(a2-3)Gal(b1-4)GlcNAc
Summary of the method: as §1

[36] = molecular target: Neu5Ac9Ac(a2-6)Gal(b1-4)GlcNAc
Summary of the method: as §1

[37] = molecular target: Neu5Gc(a2-3)Gal(b1-3)GlcNAc
Summary of the method: as §1

[38] = molecular target: Neu5Gc(a2-3)Gal(b1-3)[Fuc(a1-4)]GlcNAc
Summary of the method: as §1

Neu5Gc(a2-3)Gal(b1-4)Glc = molecular target: Neu5Gc(a2-3)Gal(b1-4)Glc
Summary of the method: as §1

[39] = molecular target: Neu5Gc(a2-3)Gal(b1-4)GlcNAc
Summary of the method: as §1

[40] = molecular target: Neu5Gc(a2-3)Gal(b1-4)[Fuc(a1-3)]GlcNAc
Summary of the method: as §1

[41] = molecular target: Neu5Gc(a2-6)Gal(b1-4)GlcNAc
Summary of the method: as §1

Neu5Gc(a2-6)GalNAc = molecular target: Neu5Gc(a2-6)GalNAc
Summary of the method: as §1

[42] = molecular target: Neu5Gc(b2-6)Gal(b1-4)GlcNAc
Summary of the method: as §1

B1: Flo10 (Saccharomyces cerevisiae), P36170 (protein)
chain: MPVAARYIFLTGLFLLSVANVALGTTEACLPAGEKKNGMTINFYQYSLKDSSTYSNPSYMAYGYADAEKLGSVSGQTKLSIDYSIPCNGASDTCACSDDDATEYSASQVVPVKRGVKLCSDNTTLSSKTEKRENDDCDQGAAYWSSDLFGFYTTPTNVTVEMTGYFLPPKTGTYTFGFATVDDSAILSVGGNVAFECCKQEQPPITSTDFTINGIKPWNADAPTDIKGSTYMYAGYYYPIKIVYSNAVSWGTLPVSVVLPDGTEVNDDFEGYVFSFDDNATQAHCSVPNPAEHARTCVSSATSSWSSSEVCTECTETESTSYVTPYVTSSSWSSSEVCTECTETESTSTSTPYVTSSSSSSSEVCTECTETESTSYVTPYVSSSTAAANYTSSFSSSSEVCTECTETESTSTSTPYVTSSSWSSSEVCTECTETESTSYVTPYVSSSTAAANYTSSFSSSSEVCTECTETESTSTSTPYVTSSSSSSSEVCTECTETESTSYVTPYVSSSTAAANYTSSFSSSSEVCTECTETESTSTSTPYVTSSSWSSSEVCTECTETESTSYVTPYVSSSTAAANYTSSFSSSSEVCTECTETESTSTSTPYATSSTGTATSFTASTSNTMTSLVQTDTTVSFSLSSTVSEHTNAPTSSVESNASTFISSNKGSVKSYVTSSIHSITPMYPSNQTVTSSSVVSTPITSESSESSASVTILPSTITSEFKPSTMKTKVVSISSSPTNLITSYDTTSKDSTVGSSTSSVSLISSISLPSSYSASSEQIFHSSIVSSNGQALTSFSSTKVSSSESSESHRTSPTTSSESGIKSSGVEIESTSTSSFSFHETSTASTSVQISSQFVTPSSPISTVAPRSTGLNSQTESTNSSKETMSSENSASVMPSSSATSPKTGKVTSDETSSGFSRDRTTVYRMTSETPSTNEQTTLITVSSCESNSCSNTVSSAVVSTATTTINGITTEYTTWCPLSATELTTVSKLESEEKTTLITVTSCESGVCSETASPAIVSTATATVNDVVTVYSTWSPQATNKLAVSSDIENSASKASFVSEAAETKSISRNNNFVPTSGTTSIETHTTTTSNASENSDNVSASEAVSSKSVTNPVLISVSQQPRGTPASSMIGSSTASLEMSSYLGIANHLLTNSGISIFIASLLLAIV
[1]
  glycan array binding signal (z-score): -0.163
Neu5Ac(a2-3)GalNAc
  glycan array binding signal (z-score): -0.639
[2]
  glycan array binding signal (z-score): 2.18
[3]
  glycan array binding signal (z-score): -0.309
[4]
  glycan array binding signal (z-score): 0.542
[5]
  glycan array binding signal (z-score): -0.509
[6]
  glycan array binding signal (z-score): 0.68
Neu5Ac(a2-6)Gal
  glycan array binding signal (z-score): 5.85
Neu5Ac(a2-6)Gal(b1-4)Glc
  glycan array binding signal (z-score): 2.1
[7]
  glycan array binding signal (z-score): -0.746
[8]
  glycan array binding signal (z-score): 3.04
[9]
  glycan array binding signal (z-score): 1.84
[10]
  glycan array binding signal (z-score): 1.36
[11]
  glycan array binding signal (z-score): -0.665
[12]
  glycan array binding signal (z-score): 1.91
[13]
  glycan array binding signal (z-score): -0.615
[14]
  glycan array binding signal (z-score): 3.12
[15]
  glycan array binding signal (z-score): 0.223
[16]
  glycan array binding signal (z-score): -0.398
[17]
  glycan array binding signal (z-score): 1.55
[18]
  glycan array binding signal (z-score): -0.243
[19]
  glycan array binding signal (z-score): -0.726
[20]
  glycan array binding signal (z-score): -0.363
[21]
  glycan array binding signal (z-score): -0.603
[22]
  glycan array binding signal (z-score): -0.493
[23]
  glycan array binding signal (z-score): -0.867
Neu5Ac(a2-6)GalNAc
  glycan array binding signal (z-score): -0.743
[24]
  glycan array binding signal (z-score): -0.635
[25]
  glycan array binding signal (z-score): -0.177
[26]
  glycan array binding signal (z-score): -0.236
Neu5Ac(a2-8)Neu5Ac
  glycan array binding signal (z-score): 1.28
[27]
  glycan array binding signal (z-score): -0.058
[28]
  glycan array binding signal (z-score): -0.604
[29]
  glycan array binding signal (z-score): 0.423
[30]
  glycan array binding signal (z-score): -0.279
[31]
  glycan array binding signal (z-score): -0.734
[32]
  glycan array binding signal (z-score): 0.14
[33]
  glycan array binding signal (z-score): -0.737
Neu5Ac(b2-6)GalNAc
  glycan array binding signal (z-score): -0.62
[34]
  glycan array binding signal (z-score): -0.021
[35]
  glycan array binding signal (z-score): 0.049
[36]
  glycan array binding signal (z-score): -0.857
[37]
  glycan array binding signal (z-score): -0.627
[38]
  glycan array binding signal (z-score): -0.571
Neu5Gc(a2-3)Gal(b1-4)Glc
  glycan array binding signal (z-score): -0.84
[39]
  glycan array binding signal (z-score): -0.495
[40]
  glycan array binding signal (z-score): 0.41
[41]
  glycan array binding signal (z-score): 2.07
Neu5Gc(a2-6)GalNAc
  glycan array binding signal (z-score): -0.092
[42]
  glycan array binding signal (z-score): -0.486

Source: the supplement of paper PMC8728848
